Data as given in PubChem BioAssay AID686943 (Drosophila RNAi Screening Center, 2013)
In all, the deposit lists about 23,000 reagents; below is a random part of those with a known target gene and a result. 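Extra replicates exist only for a retested subset of genes; insulin dose and duration not given; both raised and lowered dpERK matter.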 Reagents against one gene are numbered here. Names joined by + are all predicted targets of the reagent. Not all columns of the deposit are shown. The record does not give: the amount of reagent, the time to read-out.

Aim: 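Search across the genome for regulators of signalling from receptor tyrosine kinase to ERK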 (primary screen)
System: Drosophila S2R+ haemocyte-like cells expressing YFP-tagged ERK (Rolled)
Reagents: long dsRNA against Drosophila genes
Challenge: insulin stimulation versus unstimulated cells; dose and duration not given
Detection: 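Per-plate z-scores of phospho-ERK immunostaining normalised to YFP-tagged ERK, measured with and without insulin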
Direction: replicate 1, z-score of dpERK with insulin: higher = more active ERK per ERK-YFP after insulin

CG3909 | replicate 1, z-score of dpERK with insulin = -0.2
CG1231 | replicate 1, z-score of dpERK with insulin = 1.94
Drs | replicate 1, z-score of dpERK with insulin = 0.08
CG3280 (retired record) | replicate 1, z-score of dpERK with insulin = -0.04
CG13230 | replicate 1, z-score of dpERK with insulin = 0.14
Liprin-beta | replicate 1, z-score of dpERK with insulin = 0.17
tou #1 | replicate 1, z-score of dpERK with insulin = 0.09
tou #2 | replicate 1, z-score of dpERK with insulin = 0.41
Twdlalpha | replicate 1, z-score of dpERK with insulin = -1.41
CG17193 | replicate 1, z-score of dpERK with insulin = 0.06
CG2003 | replicate 1, z-score of dpERK with insulin = 0.59
vri | replicate 1, z-score of dpERK with insulin = -0.95
eIF2A | replicate 1, z-score of dpERK with insulin = -0.33
Blos2 | replicate 1, z-score of dpERK with insulin = 0.58
JYalpha (retired record) + JYalpha | replicate 1, z-score of dpERK with insulin = 0.78
CG14854 | replicate 1, z-score of dpERK with insulin = 0.86
pnut | replicate 1, z-score of dpERK with insulin = -0.06
Hug | replicate 1, z-score of dpERK with insulin = 0.12

Reprinted from above for reference:
CG17193 | replicate 1, z-score of dpERK with insulin = 0.06
CG2003 | replicate 1, z-score of dpERK with insulin = 0.59
vri | replicate 1, z-score of dpERK with insulin = -0.95
eIF2A | replicate 1, z-score of dpERK with insulin = -0.33
Blos2 | replicate 1, z-score of dpERK with insulin = 0.58

More reagents:
CG32795 #1 | replicate 1, z-score of dpERK with insulin = 1.3
CG32795 #2 | replicate 1, z-score of dpERK with insulin = -0.04
salr | replicate 1, z-score of dpERK with insulin = 0.87
CG5731 | replicate 1, z-score of dpERK with insulin = 0.02
cry | replicate 1, z-score of dpERK with insulin = 0.53
Eig71Ee | replicate 1, z-score of dpERK with insulin = -0.36
Adsl | replicate 1, z-score of dpERK with insulin = -0.05
Npc2g | replicate 1, z-score of dpERK with insulin = 0.69
Ttc26 | replicate 1, z-score of dpERK with insulin = -0.73
CG12589 | replicate 1, z-score of dpERK with insulin = -1.05
ND-B17.2 | replicate 1, z-score of dpERK with insulin = 1.28
COX5B | replicate 1, z-score of dpERK with insulin = -0.34
CG6051 | replicate 1, z-score of dpERK with insulin = 1.98
